{"sequences": {"note": "Sequences of proteins named here, by UniProt entry; tags and fusion partners are left off.", "UniProt P29466": "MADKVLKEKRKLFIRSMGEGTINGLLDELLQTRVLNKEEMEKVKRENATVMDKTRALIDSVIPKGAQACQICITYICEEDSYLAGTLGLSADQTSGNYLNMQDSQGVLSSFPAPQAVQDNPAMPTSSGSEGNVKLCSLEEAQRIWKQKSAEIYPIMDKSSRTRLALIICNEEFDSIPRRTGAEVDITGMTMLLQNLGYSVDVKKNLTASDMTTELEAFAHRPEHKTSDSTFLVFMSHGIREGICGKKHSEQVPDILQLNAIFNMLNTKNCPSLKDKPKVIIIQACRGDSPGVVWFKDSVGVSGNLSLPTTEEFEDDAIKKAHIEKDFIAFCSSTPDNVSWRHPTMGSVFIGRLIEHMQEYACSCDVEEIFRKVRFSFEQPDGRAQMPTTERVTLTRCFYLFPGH", "UniProt Q96P20": "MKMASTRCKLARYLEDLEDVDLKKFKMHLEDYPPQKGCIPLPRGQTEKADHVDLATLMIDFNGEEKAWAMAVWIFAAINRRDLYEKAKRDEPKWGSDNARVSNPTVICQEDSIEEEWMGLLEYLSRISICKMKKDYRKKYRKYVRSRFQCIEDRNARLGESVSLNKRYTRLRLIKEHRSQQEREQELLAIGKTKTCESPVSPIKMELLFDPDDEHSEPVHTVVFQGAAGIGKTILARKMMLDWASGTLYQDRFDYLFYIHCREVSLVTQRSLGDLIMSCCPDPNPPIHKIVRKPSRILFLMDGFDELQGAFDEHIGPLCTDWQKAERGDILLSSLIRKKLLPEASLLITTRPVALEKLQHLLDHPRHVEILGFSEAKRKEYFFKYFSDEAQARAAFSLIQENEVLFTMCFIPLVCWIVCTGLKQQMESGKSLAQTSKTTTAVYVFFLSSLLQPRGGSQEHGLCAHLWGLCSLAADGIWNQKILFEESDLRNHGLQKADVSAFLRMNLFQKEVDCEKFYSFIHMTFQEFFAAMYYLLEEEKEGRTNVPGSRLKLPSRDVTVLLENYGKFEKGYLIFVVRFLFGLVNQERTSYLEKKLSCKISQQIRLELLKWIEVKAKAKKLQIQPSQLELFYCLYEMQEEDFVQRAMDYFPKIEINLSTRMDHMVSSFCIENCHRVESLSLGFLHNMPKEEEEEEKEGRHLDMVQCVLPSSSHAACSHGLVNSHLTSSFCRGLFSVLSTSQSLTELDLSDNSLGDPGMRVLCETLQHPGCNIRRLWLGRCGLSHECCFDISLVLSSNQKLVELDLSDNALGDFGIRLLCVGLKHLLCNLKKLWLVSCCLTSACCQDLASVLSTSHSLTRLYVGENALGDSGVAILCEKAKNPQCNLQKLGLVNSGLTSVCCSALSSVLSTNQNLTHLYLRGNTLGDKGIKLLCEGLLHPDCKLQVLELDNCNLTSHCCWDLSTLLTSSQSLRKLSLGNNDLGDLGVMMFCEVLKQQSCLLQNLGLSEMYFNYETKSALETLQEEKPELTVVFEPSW", "UniProt Q96RD7": "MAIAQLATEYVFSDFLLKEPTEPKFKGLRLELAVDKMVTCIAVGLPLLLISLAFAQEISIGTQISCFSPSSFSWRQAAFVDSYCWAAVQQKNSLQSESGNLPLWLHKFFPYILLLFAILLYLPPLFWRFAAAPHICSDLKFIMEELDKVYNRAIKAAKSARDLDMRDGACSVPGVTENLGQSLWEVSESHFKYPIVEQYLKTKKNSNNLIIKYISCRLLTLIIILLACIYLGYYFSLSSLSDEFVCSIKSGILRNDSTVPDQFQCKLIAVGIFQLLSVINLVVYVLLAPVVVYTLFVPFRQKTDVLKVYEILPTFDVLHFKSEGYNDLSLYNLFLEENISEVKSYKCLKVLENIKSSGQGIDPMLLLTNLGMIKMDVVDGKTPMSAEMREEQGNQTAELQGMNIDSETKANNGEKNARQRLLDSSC", "UniProt P49023": "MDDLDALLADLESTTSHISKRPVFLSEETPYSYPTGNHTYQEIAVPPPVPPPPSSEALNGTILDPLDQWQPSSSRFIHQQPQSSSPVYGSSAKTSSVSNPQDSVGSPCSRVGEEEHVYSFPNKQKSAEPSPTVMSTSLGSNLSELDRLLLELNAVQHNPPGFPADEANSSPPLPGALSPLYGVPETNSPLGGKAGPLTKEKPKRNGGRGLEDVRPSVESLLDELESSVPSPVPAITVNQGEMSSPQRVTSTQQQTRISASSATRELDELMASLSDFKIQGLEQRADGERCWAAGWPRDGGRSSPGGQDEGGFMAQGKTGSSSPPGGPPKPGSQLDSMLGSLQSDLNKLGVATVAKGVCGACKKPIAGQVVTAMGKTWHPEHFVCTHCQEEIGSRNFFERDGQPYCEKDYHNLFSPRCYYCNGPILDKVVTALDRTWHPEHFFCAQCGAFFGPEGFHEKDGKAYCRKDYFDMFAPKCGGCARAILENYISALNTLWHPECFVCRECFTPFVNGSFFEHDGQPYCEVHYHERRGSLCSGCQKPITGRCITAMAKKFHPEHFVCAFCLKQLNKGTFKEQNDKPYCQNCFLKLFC"}, "source": "paper doi:10.1101/2020.04.03.023721", "experiment_in_all_cases": "co-IP", "key": {"Flag-Casp-1 (human)": {"biological_target": "Flag-Casp-1 (human) (UniProt P29466)"}, "Flag-NLRP3 (human)": {"biological_target": "Flag-NLRP3 (human) (UniProt Q96P20)"}, "Flag-P2X7(26-595)": {"biological_target": "T1, Flag-P2X7(26-595) (UniProt Q99572)", "T1 sequence": "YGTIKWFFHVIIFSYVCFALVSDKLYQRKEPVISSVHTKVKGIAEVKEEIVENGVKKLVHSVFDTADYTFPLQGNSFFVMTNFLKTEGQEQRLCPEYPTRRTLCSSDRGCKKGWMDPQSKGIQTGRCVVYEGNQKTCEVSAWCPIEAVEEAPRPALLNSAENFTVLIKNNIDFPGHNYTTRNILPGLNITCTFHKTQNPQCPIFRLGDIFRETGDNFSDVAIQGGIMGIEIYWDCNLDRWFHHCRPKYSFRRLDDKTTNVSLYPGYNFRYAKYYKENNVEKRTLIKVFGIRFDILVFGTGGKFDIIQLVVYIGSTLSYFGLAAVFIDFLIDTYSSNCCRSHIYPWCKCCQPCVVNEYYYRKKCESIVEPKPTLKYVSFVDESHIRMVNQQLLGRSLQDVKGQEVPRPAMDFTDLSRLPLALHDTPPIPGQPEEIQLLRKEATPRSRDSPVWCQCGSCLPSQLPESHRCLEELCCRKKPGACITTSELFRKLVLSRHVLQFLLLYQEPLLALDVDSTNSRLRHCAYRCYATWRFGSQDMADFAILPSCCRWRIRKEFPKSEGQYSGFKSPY"}, "Flag-Pannexin-1": {"biological_target": "Flag-Pannexin-1 (UniProt Q96RD7)"}, "[1]": {"biological_target": "T2, Flag-UPS13(301-624) (human) (UniProt Q92995)", "T2 sequence": "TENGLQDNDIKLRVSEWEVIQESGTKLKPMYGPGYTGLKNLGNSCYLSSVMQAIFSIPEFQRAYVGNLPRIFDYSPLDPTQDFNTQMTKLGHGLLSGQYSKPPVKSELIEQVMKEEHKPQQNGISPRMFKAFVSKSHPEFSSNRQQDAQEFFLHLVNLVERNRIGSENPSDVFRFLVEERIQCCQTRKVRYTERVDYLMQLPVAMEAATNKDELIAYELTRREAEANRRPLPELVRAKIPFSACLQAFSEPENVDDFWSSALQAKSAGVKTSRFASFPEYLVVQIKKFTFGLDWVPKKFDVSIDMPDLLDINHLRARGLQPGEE"}, "[2]": {"biological_target": "T3, Flag-UPS13(301-863) (human) (UniProt Q92995)", "T3 sequence": "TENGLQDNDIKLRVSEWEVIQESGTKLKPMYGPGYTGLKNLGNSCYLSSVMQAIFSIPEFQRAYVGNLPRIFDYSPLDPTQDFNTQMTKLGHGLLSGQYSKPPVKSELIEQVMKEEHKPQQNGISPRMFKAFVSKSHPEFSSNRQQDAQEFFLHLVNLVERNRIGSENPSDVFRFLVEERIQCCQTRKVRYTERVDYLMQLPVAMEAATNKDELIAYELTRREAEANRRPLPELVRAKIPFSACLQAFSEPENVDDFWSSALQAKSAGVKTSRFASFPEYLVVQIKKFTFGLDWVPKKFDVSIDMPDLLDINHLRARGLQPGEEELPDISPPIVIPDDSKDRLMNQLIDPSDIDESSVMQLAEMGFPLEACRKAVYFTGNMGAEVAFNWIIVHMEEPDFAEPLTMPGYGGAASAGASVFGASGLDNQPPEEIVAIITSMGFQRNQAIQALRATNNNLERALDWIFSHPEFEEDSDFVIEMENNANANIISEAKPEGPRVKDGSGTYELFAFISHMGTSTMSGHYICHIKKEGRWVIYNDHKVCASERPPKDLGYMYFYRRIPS"}}, "note": "These are yes or no findings as the source states them, for the method shown. Binding seen in cells or lysates may run through a third protein. Some results given as binding are weak or reduced against the parent protein; the word gives no strength. For part of these data: Where a sequence is shown, tags or fusion partners need not be part of it.", "data": [{"substance": "HA-Paxillin (from UniProt P49023 1-591)", "values": [{"measurement": "binding", "setting": "Flag-Casp-1 (human)", "result": "no binding"}, {"measurement": "binding", "setting": "Flag-NLRP3 (human)", "result": "binds"}, {"measurement": "binding", "setting": "Flag-P2X7(26-595)", "result": "binds"}, {"measurement": "binding", "setting": "Flag-Pannexin-1", "result": "binds"}, {"measurement": "binding", "setting": "[1]", "result": "no binding"}, {"measurement": "binding", "setting": "[2]", "result": "no binding"}]}]}
